For at least one compound, name, drawing or mass did not settle the structure.
Columns and labels:
[1] = tested on: ERK; assay: Western blot of ERK and p38 activation in BMDC; type: cell-based, mouse; conditions: FIG. 19C
Description: BMDC cell lysate was collected after different treatments and total cellular protein was resolved on polyacrylamide/SDS gels and then transferred to polyvinylidene difluoride membranes. The membranes were blocked with 5% nonfat milk in Tris-buffered saline for 1 h and then incubated from 1 h to overnight with primary antibody. After washing the membranes with Tris-buffered saline three times, the membranes were incubated horseradish peroxidase conjugated secondary antibody for 1 h. The peroxidase activity associated with the protein bands was detected by enhanced chemiluminescence using ECL plus (Amershan International) followed by autoradiography.

[2] = tested on: BMDC; assay: CCL2 release from BMDC (ELISA); type: cell-based, C57BL/6 mice; conditions: pre-incubated 20 min, then 75 μM DOTAP 24 h; PD 20 μM, SB 10 μM, U 10 μM, PTx 200 ng/mL, PP2 10 μM, Wort 200 nM, GF 200 nM; FIG. 18

COC[C@H]1OC(=O)c2coc3c2[C@@]1(C)C1=C(C3=O)[C@@H]2CCC(=O)[C@@]2(C)C[C@H]1OC(C)=O [wortmannin, reference compound]
Effect on DOTAP-induced ERK phosphorylation [1]: inhibited ERK phosphorylation | Effect on DOTAP-induced CCL2 production [2]: some inhibitory effect

From patent US8877206B2, “Stimulation of an immune response by cationic lipids” (PDS Biotechnology Corporation, priority 2007, dated 2014)
